The values are deposited in ChEMBL (CHEMBL3988442, “University of Dundee, Small-Polar-MMV Screening Library” (2021)).

Sequences of proteins named here, by UniProt entry; tags and fusion partners are left off. Residues count along the entry.
UniProt P9WNZ1, whole entry: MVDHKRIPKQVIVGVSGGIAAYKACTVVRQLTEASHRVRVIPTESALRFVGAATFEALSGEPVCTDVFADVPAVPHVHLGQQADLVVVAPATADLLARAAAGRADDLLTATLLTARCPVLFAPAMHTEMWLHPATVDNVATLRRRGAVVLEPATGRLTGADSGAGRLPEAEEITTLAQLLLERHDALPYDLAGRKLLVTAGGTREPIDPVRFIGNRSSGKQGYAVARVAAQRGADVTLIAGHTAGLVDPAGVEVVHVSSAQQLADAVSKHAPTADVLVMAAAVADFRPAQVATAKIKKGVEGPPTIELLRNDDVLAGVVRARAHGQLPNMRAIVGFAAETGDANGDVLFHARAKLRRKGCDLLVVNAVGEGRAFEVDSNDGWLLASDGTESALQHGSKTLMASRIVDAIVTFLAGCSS
UniProt P9WFT3, whole entry: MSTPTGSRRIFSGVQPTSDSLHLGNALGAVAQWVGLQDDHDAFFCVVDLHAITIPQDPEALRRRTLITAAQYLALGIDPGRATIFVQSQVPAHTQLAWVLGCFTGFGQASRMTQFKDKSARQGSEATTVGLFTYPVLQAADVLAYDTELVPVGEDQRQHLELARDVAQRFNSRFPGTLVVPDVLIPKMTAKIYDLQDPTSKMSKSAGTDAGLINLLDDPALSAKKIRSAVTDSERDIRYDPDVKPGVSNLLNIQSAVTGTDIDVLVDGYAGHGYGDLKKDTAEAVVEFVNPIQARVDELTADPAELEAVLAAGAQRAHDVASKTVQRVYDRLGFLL
UniProt A4I591, 1-473: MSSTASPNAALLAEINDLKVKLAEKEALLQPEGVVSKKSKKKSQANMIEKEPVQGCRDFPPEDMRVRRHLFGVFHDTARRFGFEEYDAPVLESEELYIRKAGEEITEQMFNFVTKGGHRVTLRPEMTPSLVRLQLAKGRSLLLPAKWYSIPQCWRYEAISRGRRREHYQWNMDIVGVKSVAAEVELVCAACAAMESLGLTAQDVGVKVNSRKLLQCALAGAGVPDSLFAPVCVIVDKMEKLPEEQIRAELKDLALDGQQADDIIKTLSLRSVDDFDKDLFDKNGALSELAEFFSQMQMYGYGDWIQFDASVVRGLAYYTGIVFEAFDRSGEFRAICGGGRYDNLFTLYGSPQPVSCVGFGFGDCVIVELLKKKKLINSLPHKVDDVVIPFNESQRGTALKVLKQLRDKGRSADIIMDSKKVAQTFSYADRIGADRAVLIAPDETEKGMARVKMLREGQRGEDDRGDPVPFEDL

A: 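Enzyme assay of CoaBC with a phosphate dye (Biomol Green) read at 650 nm. Target: Coenzyme A biosynthesis protein CoaBC, Mycobacterium tuberculosis (UniProt P9WNZ1). Concentration: 30 µM. Direction is inferred from only a few compounds that gave an IC50; most scored high, so higher reads as stronger inhibition. Most strong results did not repeat in a second test. Size under these conditions: about 67,000 compounds, about 40 of them at 50% or above in at least one test.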
B: 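Assay of Toxoplasma gondii numbers, read through their beta-galactosidase reporter with a colour substrate. Concentration: 10 µM. The record gives no direction; the compounds picked for IC50 retests had high values, so higher reads as fewer parasites. Of about 67,000 compounds tested this way, about 260 (0.38%) reached 50% or more in at least one test.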
C: 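Cell assay of Leishmania donovani living inside macrophages; the read-out is not stated. Compounds at 30 µM. Higher reads as stronger inhibition (inferred: compounds with an IC50 in retests scored well above the rest). Of about 69,000 compounds tested this way, about 1,000 (1.5%) reached 50% or more in at least one test.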
D: 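Tryptophan-tRNA ligase, Mycobacterium tuberculosis (UniProt P9WFT3). Enzyme assay of tryptophanyl-tRNA synthetase; the read-out is not stated. Compounds at 10 µM. Higher most likely means stronger inhibition; the record gives no direction and few retests gave an IC50. Of about 65,000 compounds tested this way, about 64 (0.098%) reached 50% or more in at least one test.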
E: 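Histidine-tRNA ligase, Leishmania infantum (UniProt A4I591). Enzyme assay of histidyl-tRNA synthetase; the read-out is not stated. Concentration: 30 µM. Higher reads as stronger inhibition (inferred: compounds with an IC50 in retests scored well above the rest). The assay is labelled LdHisRS but filed under L. infantum. Of about 69,000 compounds tested this way, about 410 (0.6%) reached 50% or more in at least one test.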

Each number is a percent effect as filed.
The controls that fix the scale are not given in the record; negative values are as filed.
Compounds were drawn at random from those tested, without regard to their results.
Two or more numbers in one place are separate tests of the same structure; such repeats can differ widely.

* O=C(NCc1cccnc1)[C@H]1CN2CCC1C[C@@H]2Cn1cc(CO)nn1 (some centres undefined) | A: 3.837%; B: -10.73%; C: 1.742%; D: 0.6777%; E: 19.44%
* Cc1ccc(C)c(NC(=O)N(C)Cc2cnn(C)c2)c1 | A: 2.254%; B: 5.457%; C: -11.49%; D: -3.521%; E: 14.29%
* [H][C@@]1([C@H](C)C(=O)O)CCc2c(C)cc(OC)c(C)c2C1 | B: -3.694%; C: -4.479%
* CCn1cc(NC(=O)NCC(O)c2ccccc2)cn1 (centres undefined) | A: -1.028%; C: 10.84%; D: -2.911%; E: -28.09%
* Cc1ccc(CN(CCCO)Cc2nc3ccccc3[nH]2)s1 | A: 0%; B: -6.404%; C: 5.809%; D: 0.4566%; E: 2.083%
* CCS(=O)(=O)N1C[C@@H](C(=O)NC(C)C)[C@@]2(Cc3ccccc3C(=O)N2)C1 | A: -8.138%; B: 12.98%; C: 25.82%; D: -1.847%; E: 9.859%
* CC(C)Cc1cc(NC(=O)c2n[nH]c3ccccc23)n(C)n1 | A: -2.968%; B: 17.85%; C: 23.33%; D: -1.168%; E: 3.478%
* Cc1ccc2nc(C(=O)N3CCC(CCn4cccn4)CC3)cn2c1 | A: 4.087%; B: -1.488%; C: 10.41%; D: 4.566%; E: 10.42%
* Cc1csc(N2CCN(C(=O)CCc3nccs3)CC2)n1 | A: 4.389%; B: 5.227%; C: 11.99%; D: -1.33%; E: 42.86%
* CNC(=O)N1CCC2(CC1)C(=O)N(C)c1c(F)cccc12 | A: 6.977%; B: -2.583%; C: 1.854% & -8.745%; D: 3.453%; E: 7.018%
* [H][C@@]12CS(=O)(=O)C[C@]1([H])NCCN2C(=O)COc1ccc2cccnc2c1 | B: -29.74%; C: -32.67%
* COc1cccc(-c2cnc3n2CCC32CCN(S(C)(=O)=O)CC2)c1 | B: 0.266%; C: 4.636%; D: -3.004%; E: 10.26%
* OCCNc1nccc(-c2c[nH]nc2-c2cccnc2)n1 | A: 5.422%; B: -8.104%; C: 2.039% & -1.208%; E: 14.29%
* CC(Cn1cncn1)NCCN1CCc2ccccc2C1 (centres undefined) | A: 16.04%; B: -4.205%; C: -19.07%; D: -1.786%; E: 17.14%
* O=C(c1cc(Cl)c2c(c1)OCO2)N1CCN(c2cnccn2)CC1 | A: 3.299%; B: 12.76%; C: 6.029%; D: -4.842%; E: 12.94%
* CC(C)c1cc(C(=O)N2CCCN(CCCc3ccccc3)CC2)[nH]n1 | A: -19.92%; B: 0.03775%; C: 20.38%; D: -1.939%; E: 18.18%
* COc1ccc(C(C)CCNC2CCN(c3ccccn3)CC2)cc1 (centres undefined) | A: -27.69%; B: 7.093%; C: 60.53%; D: -0.07241%; E: 22.32%
* O=C(NC1CC2(CCN(CCO)CC2)c2ccccc21)c1ccsc1 (centres undefined) | D: -3.128%; E: 12.07%
* Cc1cccnc1C(=O)N1CCCCC1c1[nH]ncc1S(C)(=O)=O (centres undefined) | A: -0.1309%; B: -4.973%; C: -33.96%; D: -0.9167%; E: 11.43%
* CN(CC(=O)N1CCCCC1Cn1cccn1)C1CC1 (centres undefined) | A: 0%; B: 38.89%; C: 12.06%; D: 9.398%; E: 3.39%
* CN(C(=O)Cn1nc(-c2ccc(F)cc2)oc1=O)C1CCS(=O)(=O)C1 (centres undefined) | A: 8.439%; B: -6.979%; C: 2.037%; D: 9.289%; E: 12.5%
* COc1ncccc1CNC(=O)N(Cc1ccccc1F)C1CC1 | A: 2.445%; B: -14.69%; C: 21.79%; D: -4.933%; E: 8.065%

Once more, the final 2:

With CN(C(=O)Cn1nc(-c2ccc(F)cc2)oc1=O)C1CCS(=O)(=O)C1 (centres undefined) the screen gave A: 8.439%; B: -6.979%; C: 2.037%; D: 9.289%; E: 12.5%.
With COc1ncccc1CNC(=O)N(Cc1ccccc1F)C1CC1 the screen gave A: 2.445%; B: -14.69%; C: 21.79%; D: -4.933%; E: 8.065%.